Binding data for one substance are collected here from PMC5309968.

Amino acid sequences for entries named in this document (tags omitted).
UniProt P03122: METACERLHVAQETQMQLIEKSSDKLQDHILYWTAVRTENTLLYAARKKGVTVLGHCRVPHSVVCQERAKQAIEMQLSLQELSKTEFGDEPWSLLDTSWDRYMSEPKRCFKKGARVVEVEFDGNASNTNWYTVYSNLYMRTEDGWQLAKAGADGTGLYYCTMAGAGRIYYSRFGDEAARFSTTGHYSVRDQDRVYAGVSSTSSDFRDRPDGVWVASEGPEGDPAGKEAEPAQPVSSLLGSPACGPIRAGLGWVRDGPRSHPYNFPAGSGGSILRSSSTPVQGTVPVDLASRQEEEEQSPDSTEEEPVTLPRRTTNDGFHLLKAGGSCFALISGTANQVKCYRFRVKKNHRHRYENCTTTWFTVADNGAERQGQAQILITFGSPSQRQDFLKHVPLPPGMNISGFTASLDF
UniProt Q6NUQ1: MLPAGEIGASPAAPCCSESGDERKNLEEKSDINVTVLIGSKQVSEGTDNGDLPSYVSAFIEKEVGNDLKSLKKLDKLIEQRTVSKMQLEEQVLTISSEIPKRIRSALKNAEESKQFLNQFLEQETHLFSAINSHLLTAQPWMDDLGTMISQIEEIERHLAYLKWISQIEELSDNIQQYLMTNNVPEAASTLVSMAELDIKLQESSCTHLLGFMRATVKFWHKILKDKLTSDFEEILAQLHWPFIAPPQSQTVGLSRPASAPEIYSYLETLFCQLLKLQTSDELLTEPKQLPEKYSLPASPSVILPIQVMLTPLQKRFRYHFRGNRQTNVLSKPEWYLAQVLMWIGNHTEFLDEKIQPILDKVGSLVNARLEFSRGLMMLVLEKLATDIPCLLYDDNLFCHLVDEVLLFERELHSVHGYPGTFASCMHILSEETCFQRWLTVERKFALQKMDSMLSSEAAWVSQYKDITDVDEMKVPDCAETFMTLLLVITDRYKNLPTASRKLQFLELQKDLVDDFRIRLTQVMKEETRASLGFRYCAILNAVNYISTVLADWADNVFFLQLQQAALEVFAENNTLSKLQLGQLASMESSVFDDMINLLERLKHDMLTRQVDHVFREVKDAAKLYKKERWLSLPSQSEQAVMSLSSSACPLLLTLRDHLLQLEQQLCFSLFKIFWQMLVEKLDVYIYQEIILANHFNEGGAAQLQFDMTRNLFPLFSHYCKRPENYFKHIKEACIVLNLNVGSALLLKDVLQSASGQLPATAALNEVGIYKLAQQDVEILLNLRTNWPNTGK

This experiment has as its target bovine papillomavirus 1 (BPV1) E2 (bovine papillomavirus 1) (UniProt P03122). The experiment in a line: co-IP; co-IP of HA-Rint1 with BPV1 E2; data not shown.

No constants are given. Whether binding was seen depends on the method and setting. Binding seen in cells or lysates may run through a third protein. Some entries that bind do so weakly or less than the wild type.

With “HA-tagged Rad50-interacting protein 1 (HA-Rint1) (from UniProt Q6NUQ1 1-792)”, the binding result is “binds”.
